# Patent US20130317087A1 (UNIVERSITY OF ROCHESTER, published 2013)
# Results are given in words; binding and its absence hold for the method and conditions named. For some assays here: Binding seen in cells or lysates may run through a third protein. Some binding calls cover weakened binding; strength is not graded here. For some assays here: Sequences can lack the tags named with a protein.
# T1: cellular hUPF1 (human, UniProt Q92900-2 1-1118, limits assumed)
# T1 construct: Endogenous protein detected by western blotting
# T1 sequence (looked up): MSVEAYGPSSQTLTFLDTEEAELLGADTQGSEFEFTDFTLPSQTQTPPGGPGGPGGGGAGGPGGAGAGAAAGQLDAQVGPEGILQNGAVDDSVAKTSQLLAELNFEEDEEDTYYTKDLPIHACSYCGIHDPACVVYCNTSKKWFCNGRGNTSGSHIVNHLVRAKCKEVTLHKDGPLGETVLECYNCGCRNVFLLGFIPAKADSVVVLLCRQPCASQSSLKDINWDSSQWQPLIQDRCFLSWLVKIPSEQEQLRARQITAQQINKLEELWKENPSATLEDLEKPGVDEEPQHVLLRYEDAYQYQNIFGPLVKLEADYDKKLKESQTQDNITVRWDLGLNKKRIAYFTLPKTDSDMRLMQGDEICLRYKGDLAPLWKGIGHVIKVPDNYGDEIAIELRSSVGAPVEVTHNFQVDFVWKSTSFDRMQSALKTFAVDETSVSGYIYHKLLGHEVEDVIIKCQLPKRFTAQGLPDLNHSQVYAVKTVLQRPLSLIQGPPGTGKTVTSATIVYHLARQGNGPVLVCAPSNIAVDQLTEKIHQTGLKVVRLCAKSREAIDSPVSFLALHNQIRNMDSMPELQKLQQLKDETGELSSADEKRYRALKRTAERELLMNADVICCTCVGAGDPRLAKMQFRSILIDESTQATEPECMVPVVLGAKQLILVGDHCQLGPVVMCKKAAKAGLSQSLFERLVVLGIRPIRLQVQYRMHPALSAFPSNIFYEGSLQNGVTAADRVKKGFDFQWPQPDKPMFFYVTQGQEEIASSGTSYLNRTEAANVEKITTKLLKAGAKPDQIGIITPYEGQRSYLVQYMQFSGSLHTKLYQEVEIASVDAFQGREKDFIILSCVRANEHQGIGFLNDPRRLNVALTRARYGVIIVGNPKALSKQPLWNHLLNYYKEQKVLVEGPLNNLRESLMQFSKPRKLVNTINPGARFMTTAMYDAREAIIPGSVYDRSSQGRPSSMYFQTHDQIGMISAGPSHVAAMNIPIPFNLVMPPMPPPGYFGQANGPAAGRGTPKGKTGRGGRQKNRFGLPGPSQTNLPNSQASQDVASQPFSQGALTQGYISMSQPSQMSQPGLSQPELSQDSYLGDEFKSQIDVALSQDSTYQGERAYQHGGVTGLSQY
# T2: cellular hSTAU2 isoforms (human) (UniProt Q9NUL3)
# T2 sequence (looked up): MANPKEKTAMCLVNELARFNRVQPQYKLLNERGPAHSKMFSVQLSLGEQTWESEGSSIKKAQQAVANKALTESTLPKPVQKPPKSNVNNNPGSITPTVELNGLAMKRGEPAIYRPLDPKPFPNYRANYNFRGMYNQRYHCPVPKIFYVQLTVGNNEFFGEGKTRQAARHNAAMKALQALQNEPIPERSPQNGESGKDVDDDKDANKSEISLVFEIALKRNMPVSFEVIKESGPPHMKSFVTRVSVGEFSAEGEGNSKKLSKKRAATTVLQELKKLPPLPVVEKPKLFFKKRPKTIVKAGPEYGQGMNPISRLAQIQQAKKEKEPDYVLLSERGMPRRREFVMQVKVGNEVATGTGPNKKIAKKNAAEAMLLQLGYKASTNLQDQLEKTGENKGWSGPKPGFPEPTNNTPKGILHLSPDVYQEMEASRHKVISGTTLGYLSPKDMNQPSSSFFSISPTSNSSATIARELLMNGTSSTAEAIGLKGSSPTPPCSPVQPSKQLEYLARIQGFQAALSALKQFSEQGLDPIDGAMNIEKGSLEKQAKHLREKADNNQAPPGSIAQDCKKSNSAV
# T3: mRFP-‘RBD’5 (human, UniProt O95793-2 407-476)
# T3 construct: domain: ‘RBD’5; also called monomeric red fluorescence protein-‘RBD’5; product of pmRFP-hSTAU1-‘RBD’5; not shown: N-terminal mRFP (monomeric DsRed derived from pDsRed-Express-C1) with vector linker
# T3 sequence (looked up): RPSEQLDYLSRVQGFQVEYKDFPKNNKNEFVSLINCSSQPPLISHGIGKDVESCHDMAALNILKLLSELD
# T4: mRFP-SSM-‘RBD’5 (human)
# T4 sequence (chain, by the resolver, N-terminal mRFP fusion is not carried in the letters.): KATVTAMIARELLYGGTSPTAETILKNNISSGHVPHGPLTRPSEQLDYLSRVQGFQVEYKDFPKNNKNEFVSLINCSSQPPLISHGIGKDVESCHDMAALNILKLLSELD
# B1: hSTAU1 SSM-‘RBD’5 (hSTAU1^55 amino acids 367-476, GST tag removed) (other)
# chain: GPLGSKATVTAMIARELLYGGTSPTAETILKNNISSGHVPHGPLTRPSEQLDYLSRVQGFQVEYKDFPKNNKNEFVSLINCSSQPPLISHGIGKDVESCHDMAALNILKLLSELD
# notes: Made in E. coli as a GST fusion from pGEX-6p-1, GST cleaved off; In monomer-dimer equilibrium; also called SSM-‘RBD’5(WT); hSTAU1^55(367-476)
# B2: hSTAU1^55(R)-FLAG (other, human, UniProt O95793-2 1-496, looked up, not shown: small tags and cut ends)
# chain: MKLGKKPMYKPVDPYSRMQSTYNYNMRGGAYPPRYFYPFPVPPLLYQVELSVGGQQFNGKGKTRQAAKHDAAAKALRILQNEPLPERLEVNGRESEEENLNKSEISQVFEIALKRNLPVNFEVARESGPPHMKNFVTKVSVGEFVGEGEGKSKKISKKNAAIAVLEELKKLPPLPAVERVKPRIKKKTKPIVKPQTSPEYGQGINPISRLAQIQQAKKEKEPEYTLLTERGLPRRREFVMQVKVGNHTAEGTGTNKKVAKRNAAENMLEILGFKVPQAQPTKPALKSEEKTPIKKPGDGRKVTFFEPGSGDENGTSNKEDEFKMPYLSHQQLPAGILPMVPEVAQAVGVSQGHHTKDFTRAAPNPAKATVTAMIARELLYGGTSPTAETILKNNISSGHVPHGPLTRPSEQLDYLSRVQGFQVEYKDFPKNNKNEFVSLINCSSQPPLISHGIGKDVESCHDMAALNILKLLSELDQQSTEMPRTGNGPMSVCGRC
# notes: Expressed in HEK293T cells at the level of cellular hSTAU1; also called product of pcI-neo-hSTAU1^55(R)-FLAG
# B3: hSTAU1^55(R)Δ(C-Term)-FLAG (other, human, UniProt O95793-2 1-422, looked up, not shown: small tags and cut ends)
# chain: MKLGKKPMYKPVDPYSRMQSTYNYNMRGGAYPPRYFYPFPVPPLLYQVELSVGGQQFNGKGKTRQAAKHDAAAKALRILQNEPLPERLEVNGRESEEENLNKSEISQVFEIALKRNLPVNFEVARESGPPHMKNFVTKVSVGEFVGEGEGKSKKISKKNAAIAVLEELKKLPPLPAVERVKPRIKKKTKPIVKPQTSPEYGQGINPISRLAQIQQAKKEKEPEYTLLTERGLPRRREFVMQVKVGNHTAEGTGTNKKVAKRNAAENMLEILGFKVPQAQPTKPALKSEEKTPIKKPGDGRKVTFFEPGSGDENGTSNKEDEFKMPYLSHQQLPAGILPMVPEVAQAVGVSQGHHTKDFTRAAPNPAKATVTAMIARELLYGGTSPTAETILKNNISSGHVPHGPLTRPSEQLDYLSRVQGFQ
# notes: domain: lacks all amino acids C-terminal to ‘RBD’5 α1; End at residue 422 is read from the primer; also called product of pcI-neo-hSTAU1^55(R)Δ(C-Term)-FLAG
# B4: EGFP-SSM-‘RBD’5 (other, human, UniProt O95793-2 367-476, looked up)
# chain: T4 sequence (chain, by the resolver, N-terminal mRFP fusion is not carried in the letters.)
# notes: range 367-476; Expressed in HEK293T cells; tested in lysates with RNase A; also called monomeric enhanced green fluorescence protein-SSM-‘RBD’5; product of pEGFP-hSTAU1-SSM-‘RBD’5; not shown: N-terminal monomeric EGFP from pEGFP-C3 (BD Biosciences Clontech) with vector linker
# B5: EGFP-‘RBD’5 (other, human, UniProt O95793-2 407-476, looked up)
# chain: T3 sequence (looked up)
# notes: domain: ‘RBD’5; also called monomeric enhanced green fluorescence protein-‘RBD’5; product of pEGFP-hSTAU1-‘RBD’5; not shown: N-terminal monomeric EGFP from pEGFP-C3 with vector linker
# Legend:
# cellular hUPF1 [1] = molecular target: T1, cellular hUPF1; assay: anti-HA co-IP from HEK293T lysates
# [2] = molecular target: hSTAU1 SSM-‘RBD’5(E424H, D427V) (human) (UniProt O95793); assay: gel-filtration chromatography
# [3] = molecular target: hSTAU1 SSM-‘RBD’5 (hSTAU1^55 amino acids 367-476, GST tag removed) (human); assay: X-ray crystal structure of SSM-‘RBD’5
# [4] = molecular target: hSTAU1 SSM-‘RBD’5 (hSTAU1^55 amino acids 367-476, GST tag removed) (human); assay: gel filtration of the E. coli-made protein
# [5] = molecular target: hSTAU1 SSM-‘RBD’5 (hSTAU1^55 amino acids 367-476, GST tag removed) (human); assay: analytical ultracentrifugation (figure legend)
# [6] = molecular target: hSTAU1 SSM-‘RBD’5 (hSTAU1^55 amino acids 367-476, GST tag removed) (human); assay: sedimentation velocity analytical ultracentrifugation (self-association, monomer-dimer equilibrium)
# cellular hUPF1 [7] = molecular target: T1, cellular hUPF1; assay: anti-FLAG co-IP from HEK293T lysates with RNase A
# [8] = molecular target: T2, cellular hSTAU2 isoforms (human); assay: anti-FLAG co-IP from HEK293T lysates with RNase A
# [9] = molecular target: endogenous hSTAU1 isoforms (human) (UniProt O95793); assay: anti-GFP co-IP from HEK293T lysates with RNase A, western blotting
# mRFP-‘RBD’5 = molecular target: T3, mRFP-‘RBD’5; assay: as above
# mRFP-SSM-‘RBD’5 (human) = molecular target: T4, mRFP-SSM-‘RBD’5 (human); assay: as above
molecule,measurement,setting,value
hSTAU1^55-HA3 (from UniProt O95793 1-496),binding,cellular hUPF1 [1],binds
"hSTAU1 SSM-‘RBD’5(E424H, D427V) (from UniProt O95793 367-476)",binding,[2],binds
B1,binding,[3],binds
same,binding,[4],binds
same,binding,[5],binds
same,binding,[6],binds
B2,binding,cellular hUPF1 [7],binds
same,binding,[8],binds
B3,binding,cellular hUPF1 [7],binds
same,binding,[8],binds
B4,binding,[9],binds
same,binding,mRFP-‘RBD’5,binds
B5,binding,[9],binds
same,binding,mRFP-SSM-‘RBD’5 (human),binds
